{"source": "paper PMC12483987", "experiment_in_all_cases": "EMSA", "details_in_all_cases": "EMSA/Gel-Shift kit (Beyotime) per manufacturer; unlabelled competitor 2.5- to 10-fold; pH and temperature not stated; recombinant protein; protein details: N-terminal GST (pGEX-6P-1); label: 3' biotin (F strand)", "key": {"GST-CiSPL6": {"system": "GST-CiSPL6"}, "GST-CiSPL7": {"system": "GST-CiSPL7"}, "GST-CiSPL3": {"system": "GST-CiSPL3"}}, "note": "For at least one entry, the source does not settle the construct or the ends of the probe.", "data": [{"sequence": "ACTCAAAAAACAAAACTATTGTACTGCCCTGTGCATGTGTGCAT (double strand) [pCiGA20ox2 probe]", "values": [{"measurement": "binding result", "setting": "GST-CiSPL6", "result": "binds"}]}, {"sequence": "GCCAAAACCATAACTACTTAGTACACAAAAAACTTTTCTGTTCG (double strand) [pCiFD probe]", "values": [{"measurement": "binding result", "setting": "GST-CiSPL7", "result": "binds"}]}, {"sequence": "AAATGAATAATTCAGAAACTGTACGTGATGATAGAATCAATGAG (double strand) [pCiKN6 probe]", "values": [{"measurement": "binding result", "setting": "GST-CiSPL3", "result": "binds"}]}]}
